PubChem BioAssay AID1159591 | NIAID, 2016
The whole screen tested 756 reagents; below is a random part of them. In the full data, 130 (17%) got an active call. 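Active calls include both lower and higher Tnf reporter signal.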 A number with no mark means an inactive call. Reagents against one gene are numbered here. Not given: the amount of reagent.

- Purpose: 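Which TLR signalling genes macrophages need for R848-driven Tnf promoter activity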
- System: mouse RAW264.7 G9 macrophage reporter clone (GFP-p65, Tnf promoter-mCherry)
- Knock-down reagent: single siRNA against mouse genes
- Time to read-out: cells assayed 48 to 72 hours after siRNA transfection; R848 for 16 hours before fixing
- Conditions: R848 (TLR7/8 agonist) for 16 hours before fixation; dose not given
- Measured: 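mCherry Tnf promoter reporter in nuclei imaged after 16 hours of R848, background removed, robust z relative to non-targeting controls using plate median and MAD, replicate average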
- Scale: mean Tnf reporter z-score: higher = stronger Tnf promoter reporter signal than controls
- Rule for the call: 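Activity score from absolute z: steps above 1, 1.5, 2 and 2.5 give 25 to 100; active cut not stated, but active genes here sit near z -1.5 or below, or 1.5 or above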
- Meaning of the calls: active = reporter clearly up or down; inactive = little reporter change

gene symbol	siRNA no.	mean Tnf reporter z-score
Tlr6	1	0.502
Tlr6	2	0.768
Tlr6	3	-1.34
Tlr6	4	0.553
Tlr6	5	0.827
Tlr6	6	0.104
Irf7	1	-2.65 (active)
Irf7	2	-0.866
Irf7	3	0.959
Irf7	4	-0.517
Irf7	5	-0.482
Irf7	6	-0.743
Elf4	1	-0.866
Elf4	2	-1.34
Elf4	3	-2.89 (active)
Elf4	4	0.0408
Elf4	5	-1.43
Elf4	6	1.4
Pik3r1	1	-1.59 (active)
Pik3r1	2	-0.167
Pik3r1	3	-0.178
Pik3r1	4	0.869
Pik3r1	5	-1.13
Pik3r1	6	-1.49
Dab2ip	1	0.385
Dab2ip	2	-0.0188
Dab2ip	3	1.59 (active)
Dab2ip	4	-2.7 (active)
Dab2ip	5	-1.09
Dab2ip	6	-0.0215
Mapk11	1	1.11
Mapk11	2	-0.793
Mapk11	3	-0.428
Mapk11	4	-0.401
Mapk11	5	-0.51
Mapk11	6	0.558
Sigirr	1	0.534
Sigirr	2	-1.4
Sigirr	3	-0.08
Sigirr	4	-1.38
Sigirr	5	-0.843
Sigirr	6	0.892
Map2k4	1	-0.117
Map2k4	2	0.354
Map2k4	3	-0.226
Map2k4	4	0.365
Map2k4	5	-0.79
Map2k4	6	-1.34

7 neighbouring reagents from above:
gene symbol	siRNA no.	mean Tnf reporter z-score
Tlr6	4	0.553
Tlr6	5	0.827
Tlr6	6	0.104
Irf7	1	-2.65 (active)
Irf7	2	-0.866
Irf7	3	0.959
Irf7	4	-0.517
